Changes are numbered by the printed parent chain. Some of the results follow. For some assays here: At the low end of the ranking, values are background and their order means little. For some assays here: The exact form of the protein is not confirmed.
Tests used:
Details in all cases: yeast three-hybrid, YBZ-1, SC-Leu-His + 0.5 mM 3-AT, 4 days
[1] = target: T1, PUM1 PUF domain R2-VFQ R3-THE R4-TFR N899V + Y900F + C935T + R936H + Q939E + N971T + H972F + Q975R (UniProt Q14671)
T1 sequence: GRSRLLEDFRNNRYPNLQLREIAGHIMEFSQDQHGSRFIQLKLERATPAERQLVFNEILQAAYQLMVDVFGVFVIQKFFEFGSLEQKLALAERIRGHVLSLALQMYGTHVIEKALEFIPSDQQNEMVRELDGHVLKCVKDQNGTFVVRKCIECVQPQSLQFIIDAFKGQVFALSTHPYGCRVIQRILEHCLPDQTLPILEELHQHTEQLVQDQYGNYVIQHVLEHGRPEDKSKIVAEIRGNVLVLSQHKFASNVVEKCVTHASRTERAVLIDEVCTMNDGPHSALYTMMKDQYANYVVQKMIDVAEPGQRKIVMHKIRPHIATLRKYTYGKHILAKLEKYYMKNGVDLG

[2] = target: T2, PUM1 PUF domain R5-PHQ R6-SWD C1007P + R1008H + N1043S + Y1044W + Q1047D (UniProt Q14671)
T2 sequence: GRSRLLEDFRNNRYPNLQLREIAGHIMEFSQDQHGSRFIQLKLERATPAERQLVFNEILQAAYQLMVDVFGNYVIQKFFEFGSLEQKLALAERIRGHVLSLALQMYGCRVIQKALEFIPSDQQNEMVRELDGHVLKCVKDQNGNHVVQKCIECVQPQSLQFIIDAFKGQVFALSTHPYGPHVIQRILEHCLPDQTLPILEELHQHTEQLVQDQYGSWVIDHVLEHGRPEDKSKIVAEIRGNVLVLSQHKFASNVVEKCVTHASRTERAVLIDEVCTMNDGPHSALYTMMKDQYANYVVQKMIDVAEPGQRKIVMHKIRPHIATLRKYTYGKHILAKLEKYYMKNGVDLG

[3] = target: T3, PUM1 PUF domain R6-SWD R7-NPG N1043S + Y1044W + Q1047D + S1079N + N1080P + E1083G (Homo sapiens) (UniProt Q14671)
T3 sequence: T2 sequence with P180C, H181R, S252N, N253P, E256G

[4] = target: T4, PUM1 PUF domain R6-SWD R7-NPG N1043S + Y1044W + Q1047D + S1079N + N1080P + E1083G (UniProt Q14671)
T4 sequence: T2 sequence with P180C, H181R, S252N, N253P, E256G

[5] = target: T5, PUM1 PUF domain R3-THE R4-TFR C935T + R936H + Q939E + N971T + H972F + Q975R (UniProt Q14671)
T5 sequence: T1 sequence with V72N, F73Y

With “GGCUAGAACUAGUGGAUCCCCCGGCGCCCGGCGGCUCGAGCCCGGGUAAGAUGACACCGUCUGCAUGCCGCCGGGCGCCAUGCCUGCAGGUCGACUCUAGAAAACAUG” the binding signal (log2 enrichment (interaction score)) [1] was -4.69 and the binding signal (log2 enrichment (interaction score)) [2] was -8.52.

“GGCUAGAACUAGUGGAUCCCCCGGCGCCCGGCGGCUCGAGCCCGGGUAAGAGUAAACUGUCUGCAUGCCGCCGGGCGCCAUGCCUGCAGGUCGACUCUAGAAAACAUG” was tested, and the binding signal (log2 enrichment (interaction score)) [1] was -4.89 and the binding signal (log2 enrichment (interaction score)) [2] was < -7.16.

With “GGCUAGAACUAGUGGAUCCCCCGGCGCCCGGCGGCUCGAGCCCGGGUAAGGUUAAACAGUCUGCAUGCCGCCGGGCGCCAUGCCUGCAGGUCGACUCUAGAAAACAUG” the binding signal (log2 enrichment (interaction score)) [1] was -5.49, the binding signal (log2 enrichment (interaction score)) [2] was < -7.65 and the binding signal (log2 enrichment (interaction score)) [3] was -1.89.

In the case of “GGCUAGAACUAGUGGAUCCCCCGGCGCCCGGCGGCUCGAGCCCGGGUAAGCGGAUUUAGUCUGCAUGCCGCCGGGCGCCAUGCCUGCAGGUCGACUCUAGAAAACAUG”, the binding signal (log2 enrichment (interaction score)) [1] was -4.95 and the binding signal (log2 enrichment (interaction score)) [2] was -7.58.

For “GGCUAGAACUAGUGGAUCCCCCGGCGCCCGGCGGCUCGAGCCCGGGUAAGAAUAAAGAGUCUGCAUGCCGCCGGGCGCCAUGCCUGCAGGUCGACUCUAGAAAACAUG”, the binding signal (log2 enrichment (interaction score)) [1] was -5.56, the binding signal (log2 enrichment (interaction score)) [2] was < -7.57 and the binding signal (log2 enrichment (interaction score)) [4] was -2.22.

“GGCUAGAACUAGUGGAUCCCCCGGCGCCCGGCGGCUCGAGCCCGGGUAAGAUCACACUGUCUGCAUGCCGCCGGGCGCCAUGCCUGCAGGUCGACUCUAGAAAACAUG” gave a binding signal (log2 enrichment (interaction score)) [1] of -5.56 and a binding signal (log2 enrichment (interaction score)) [3] of -0.49.

With “GGCUAGAACUAGUGGAUCCCCCGGCGCCCGGCGGCUCGAGCCCGGGUAAGUGGUAAUCGUCUGCAUGCCGCCGGGCGCCAUGCCUGCAGGUCGACUCUAGAAAACAUG” the binding signal (log2 enrichment (interaction score)) [1] was -5.44 and the binding signal (log2 enrichment (interaction score)) [2] was -6.59.

Work on “GGCUAGAACUAGUGGAUCCCCCGGCGCCCGGCGGCUCGAGCCCGGGUAAGUUUAUGCCGUCUGCAUGCCGCCGGGCGCCAUGCCUGCAGGUCGACUCUAGAAAACAUG” yielded a binding signal (log2 enrichment (interaction score)) [5] of -7.29.
